The record followed here is PMC7247563, “Glycosylation Tunes Neuroserpin Physiological and Pathological Properties” (International Journal of Molecular Sciences, 2020).

Results are given in words; binding and its absence hold for the method and conditions named. Some results given as binding are weak or reduced against the parent protein; the word gives no strength.

In assay [1] the target is human glycosylated neuroserpin expressed in LEXSY (Leishmania tarentolae) (human) (UniProt Q99574). The assay can be described thus: SEC; 63.8 uM NS or gNS in 10 mM Tris-HCl pH 8.0, 50 mM KCl, incubated at 45 °C; aliquots at different times run on a Superdex 200 Increase 10/300 GL column; heat-induced polymerisation; both purified. (In general: SEC sorts molecules by how far they enter the pores of the column.)

Assay [2] has the same target. Kind of assay: native gel or EMSA; aliquots of NS or gNS (63.8 uM) after different times at 45 °C; 7.5 % non-denaturing polyacrylamide gel, 90 V, 2 h, 4 °C, Coomassie stain; heat-induced polymerisation; both purified. A general note: In EMSA bound probe runs differently from free probe, usually more slowly.

B1: human glycosylated neuroserpin expressed in LEXSY (Leishmania tarentolae) (protein, UniProt Q99574 17-410)
chain: TGATFPEEAIADLSVNMYNRLRATGEDENILFSPLSIALAMGMMELGAQGSTQKEIRHSMGYDSLKNGEEFSFLKEFSNMVTAKESQYVMKIANSLFVQNGFHVNEEFLQMMKKYFNAAVNHVDFSQNVAVANYINKWVENNTNNLVKDLVSPRDFDAATYLALINAVYFKGNWKSQFRPENTRTFSFTKDDESEVQIPMMYQQGEFYYGEFSDGSNEAGGIYQVLEIPYEGDEISMMLVLSRQEVPLATLEPLVKAQLVEEWANSVKKQKVEVYLPRFTVEQEIDLKDVLKALGITEIFIKDANLTGLSDNKEIFLSKAIHKSFLEVNEEGSEAAAVSGMIAISRMAVLYPQVIVDHPFFFLIRNRRTGTILFMGRVMHPETMNTSGHDFEEL
modifications: N-linked glycans at N157 and N321
With B1, the binding entry in assay [1] and in assay [2] was “binds weakly” throughout.
